{"source": "the supplement of paper PMC8728848", "binders": {"B1": {"name": "Epa20 (Candida glabrata) (protein)", "chain": "MGSSHHHHHHSSGLVPRGSHMASSNIPNNYPLGCSNKYSGHLPGLKMELYSYNYVNPRHPDPQNPGKLDQLYDPNLLGTYECFDSSYKDINYPRVGYKSKTLIGRSDGVSGILNFNFVPPWGCMPQKGQLPPAYNFKSNITLSNFTMILFGYFKPKISGNHIFSLHGDDLIYLNFGAGNAFDCCRQESSADNFGNYQAFSLWGINWEKKTLTVYLDMNTYYPIRIFYNNRDYQAIFNFSFKTEFDSSPVIDFQDYFFFLRDIDGGCPGEV"}}, "assay_in_all_cases": "glycan array binding signal (z-score within array); higher = stronger binding", "settings_in_all_cases": "glycan notation: IUPAC condensed, linker removed", "key": {"[1]": {"target": "Fuc(a1-2)[Gal(a1-3)]Gal(b1-4)GlcNAc(b1-2)Man(a1-3)[Fuc(a1-2)[Gal(a1-3)]Gal(b1-4)GlcNAc(b1-2)Man(a1-6)]Man(b1-4)GlcNAc(b1-4)GlcNAc", "in_short": "(§1)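 Arrays were curated from the Consortium for Functional Glycomics database, 3228 in total, and kept only where the protein sequence was available. Binding is expressed as a within-array Z-score. This score was averaged across arrays of the same protein sequence at different concentrations or buffers and across linkers, and negative values can be read as non-binding.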"}, "[2]": {"target": "Fuc(a1-2)[Gal(a1-3)]Gal(b1-4)GlcNAc(b1-2)Man(a1-3)[Fuc(a1-2)[Gal(a1-3)]Gal(b1-4)GlcNAc(b1-2)Man(a1-6)]Man(b1-4)GlcNAc(b1-4)[Fuc(a1-6)]GlcNAc", "in_short": "as §1"}, "[3]": {"target": "Fuc(a1-2)[Gal(a1-3)]Gal(b1-4)GlcNAc(b1-3)GalNAc", "in_short": "as §1"}, "[4]": {"target": "Fuc(a1-2)[Gal(a1-3)]Gal(b1-4)GlcNAc(b1-3)[Fuc(a1-2)[Gal(a1-3)]Gal(b1-4)GlcNAc(b1-6)]GalNAc", "in_short": "as §1"}, "[5]": {"target": "Fuc(a1-2)[Gal(a1-3)]Gal(b1-4)GlcNAc(b1-6)GalNAc", "in_short": "as §1"}, "[6]": {"target": "Fuc(a1-2)[Gal(a1-3)]Gal(b1-4)[Fuc(a1-3)]Glc", "in_short": "as §1"}, "[7]": {"target": "Fuc(a1-2)[Gal(a1-3)]Gal(b1-4)[Fuc(a1-3)]GlcNAc", "in_short": "as §1"}, "[8]": {"target": "Fuc(a1-2)[Gal(a1-3)]Gal(b1-4)[Fuc(a1-3)]GlcNAc(b1-3)GalNAc", "in_short": "as §1"}, "[9]": {"target": "Fuc(a1-2)[Gal(a1-4)]Gal(b1-4)GlcNAc", "in_short": "as §1"}, "[10]": {"target": "Fuc(a1-2)[GalNAc(a1-3)]Gal", "in_short": "as §1"}, "[11]": {"target": "Fuc(a1-2)[GalNAc(a1-3)]Gal(b1-3)GalNAc(a1-3)[Fuc(a1-2)]Gal(b1-4)GlcNAc", "in_short": "as §1"}, "[12]": {"target": "Fuc(a1-2)[GalNAc(a1-3)]Gal(b1-3)GalNAc(b1-3)Gal(a1-4)Gal(b1-4)Glc", "in_short": "as §1"}, "[13]": {"target": "Fuc(a1-2)[GalNAc(a1-3)]Gal(b1-3)GlcNAc", "in_short": "as §1"}, "[14]": {"target": "Fuc(a1-2)[GalNAc(a1-3)]Gal(b1-3)GlcNAc(b1-2)Man(a1-3)[Fuc(a1-2)[GalNAc(a1-3)]Gal(b1-3)GlcNAc(b1-2)Man(a1-6)]Man(b1-4)GlcNAc(b1-4)GlcNAc", "in_short": "as §1"}, "[15]": {"target": "Fuc(a1-2)[GalNAc(a1-3)]Gal(b1-3)GlcNAc(b1-2)Man(a1-3)[Fuc(a1-2)[GalNAc(a1-3)]Gal(b1-3)GlcNAc(b1-2)Man(a1-6)]Man(b1-4)GlcNAc(b1-4)[Fuc(a1-6)]GlcNAc", "in_short": "as §1"}, "[16]": {"target": "Fuc(a1-2)[GalNAc(a1-3)]Gal(b1-3)GlcNAc(b1-3)GalNAc", "in_short": "as §1"}, "[17]": {"target": "Fuc(a1-2)[GalNAc(a1-3)]Gal(b1-3)GlcNAc(b1-6)GalNAc", "in_short": "as §1"}, "[18]": {"target": "Fuc(a1-2)[GalNAc(a1-3)]Gal(b1-4)Glc", "in_short": "as §1"}, "[19]": {"target": "Fuc(a1-2)[GalNAc(a1-3)]Gal(b1-4)GlcNAc", "in_short": "as §1"}, "[20]": {"target": "Fuc(a1-2)[GalNAc(a1-3)]Gal(b1-4)GlcNAc(b1-2)Man", "in_short": "as §1"}, "[21]": {"target": "Fuc(a1-2)[GalNAc(a1-3)]Gal(b1-4)GlcNAc(b1-2)Man(a1-3)[Fuc(a1-2)[GalNAc(a1-3)]Gal(b1-4)GlcNAc(b1-2)Man(a1-6)]Man(b1-4)GlcNAc(b1-4)GlcNAc", "in_short": "as §1"}, "[22]": {"target": "Fuc(a1-2)[GalNAc(a1-3)]Gal(b1-4)GlcNAc(b1-2)Man(a1-3)[Fuc(a1-2)[GalNAc(a1-3)]Gal(b1-4)GlcNAc(b1-2)Man(a1-6)]Man(b1-4)GlcNAc(b1-4)[Fuc(a1-6)]GlcNAc", "in_short": "as §1"}, "[23]": {"target": "Fuc(a1-2)[GalNAc(a1-3)]Gal(b1-4)GlcNAc(b1-3)Gal(b1-4)GlcNAc", "in_short": "as §1"}, "[24]": {"target": "Fuc(a1-2)[GalNAc(a1-3)]Gal(b1-4)GlcNAc(b1-3)Gal(b1-4)GlcNAc(b1-3)Gal(b1-4)GlcNAc", "in_short": "as §1"}, "[25]": {"target": "Fuc(a1-2)[GalNAc(a1-3)]Gal(b1-4)GlcNAc(b1-3)GalNAc", "in_short": "as §1"}, "[26]": {"target": "Fuc(a1-2)[GalNAc(a1-3)]Gal(b1-4)GlcNAc(b1-3)[Fuc(a1-2)[GalNAc(a1-3)]Gal(b1-4)GlcNAc(b1-6)]GalNAc", "in_short": "as §1"}, "[27]": {"target": "Fuc(a1-2)[GalNAc(a1-3)]Gal(b1-4)GlcNAc(b1-6)GalNAc", "in_short": "as §1"}, "[28]": {"target": "Fuc(a1-2)[GalNAc(a1-3)]Gal(b1-4)[Fuc(a1-3)]GlcNAc", "in_short": "as §1"}, "[29]": {"target": "Fuc(a1-2)[GalNAc(a1-3)]Gal(b1-4)[Fuc(a1-3)]GlcNAc(b1-3)GalNAc", "in_short": "as §1"}, "[30]": {"target": "Fuc(a1-2)[GalNAc(a1-4)]Gal(b1-4)GlcNAc", "in_short": "as §1"}}, "note": "This is one part of the list."}
{"binder": "B1", "values": [{"measurement": "glycan array binding signal (z-score)", "setting": "[1]", "value": -0.252}, {"measurement": "glycan array binding signal (z-score)", "setting": "[2]", "value": -0.44}, {"measurement": "glycan array binding signal (z-score)", "setting": "[3]", "value": -0.358}, {"measurement": "glycan array binding signal (z-score)", "setting": "[4]", "value": 0.437}, {"measurement": "glycan array binding signal (z-score)", "setting": "[5]", "value": -0.478}, {"measurement": "glycan array binding signal (z-score)", "setting": "[6]", "value": -0.597}, {"measurement": "glycan array binding signal (z-score)", "setting": "[7]", "value": -0.119}, {"measurement": "glycan array binding signal (z-score)", "setting": "[8]", "value": 0.657}, {"measurement": "glycan array binding signal (z-score)", "setting": "[9]", "value": 0.161}, {"measurement": "glycan array binding signal (z-score)", "setting": "[10]", "value": -0.452}, {"measurement": "glycan array binding signal (z-score)", "setting": "[11]", "value": -0.262}, {"measurement": "glycan array binding signal (z-score)", "setting": "[12]", "value": -0.021}, {"measurement": "glycan array binding signal (z-score)", "setting": "[13]", "value": 0.546}, {"measurement": "glycan array binding signal (z-score)", "setting": "[14]", "value": -0.559}, {"measurement": "glycan array binding signal (z-score)", "setting": "[15]", "value": -0.462}, {"measurement": "glycan array binding signal (z-score)", "setting": "[16]", "value": 0.427}, {"measurement": "glycan array binding signal (z-score)", "setting": "[17]", "value": -0.607}, {"measurement": "glycan array binding signal (z-score)", "setting": "[18]", "value": -0.567}, {"measurement": "glycan array binding signal (z-score)", "setting": "[19]", "value": -0.674}, {"measurement": "glycan array binding signal (z-score)", "setting": "[20]", "value": -0.81}, {"measurement": "glycan array binding signal (z-score)", "setting": "[21]", "value": -0.219}, {"measurement": "glycan array binding signal (z-score)", "setting": "[22]", "value": 0.021}, {"measurement": "glycan array binding signal (z-score)", "setting": "[23]", "value": -0.385}, {"measurement": "glycan array binding signal (z-score)", "setting": "[24]", "value": 0.348}, {"measurement": "glycan array binding signal (z-score)", "setting": "[25]", "value": -0.351}, {"measurement": "glycan array binding signal (z-score)", "setting": "[26]", "value": 0.032}, {"measurement": "glycan array binding signal (z-score)", "setting": "[27]", "value": -0.648}, {"measurement": "glycan array binding signal (z-score)", "setting": "[28]", "value": 0.484}, {"measurement": "glycan array binding signal (z-score)", "setting": "[29]", "value": 3.14}, {"measurement": "glycan array binding signal (z-score)", "setting": "[30]", "value": -0.503}]}
